Experimental data published in the supplement of paper PMC10060354, “Discovery of a small molecule ligand of FRS2 that inhibits invasion and tumor growth” (Cellular Oncology, 2022).
Many values rest on one well or one pass, so single values are uncertain.

The chains behind the UniProt entries cited, without tags or fusion partners. Where a name states a change or a piece, a line headed by the entry shows the natural chain unless it says otherwise.
UniProt P61026: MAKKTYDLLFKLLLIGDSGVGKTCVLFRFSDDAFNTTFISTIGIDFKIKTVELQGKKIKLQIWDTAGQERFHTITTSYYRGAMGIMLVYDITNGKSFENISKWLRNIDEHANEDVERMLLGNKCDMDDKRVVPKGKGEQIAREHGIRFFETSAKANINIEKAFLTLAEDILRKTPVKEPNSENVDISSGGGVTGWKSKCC
UniProt Q96D71: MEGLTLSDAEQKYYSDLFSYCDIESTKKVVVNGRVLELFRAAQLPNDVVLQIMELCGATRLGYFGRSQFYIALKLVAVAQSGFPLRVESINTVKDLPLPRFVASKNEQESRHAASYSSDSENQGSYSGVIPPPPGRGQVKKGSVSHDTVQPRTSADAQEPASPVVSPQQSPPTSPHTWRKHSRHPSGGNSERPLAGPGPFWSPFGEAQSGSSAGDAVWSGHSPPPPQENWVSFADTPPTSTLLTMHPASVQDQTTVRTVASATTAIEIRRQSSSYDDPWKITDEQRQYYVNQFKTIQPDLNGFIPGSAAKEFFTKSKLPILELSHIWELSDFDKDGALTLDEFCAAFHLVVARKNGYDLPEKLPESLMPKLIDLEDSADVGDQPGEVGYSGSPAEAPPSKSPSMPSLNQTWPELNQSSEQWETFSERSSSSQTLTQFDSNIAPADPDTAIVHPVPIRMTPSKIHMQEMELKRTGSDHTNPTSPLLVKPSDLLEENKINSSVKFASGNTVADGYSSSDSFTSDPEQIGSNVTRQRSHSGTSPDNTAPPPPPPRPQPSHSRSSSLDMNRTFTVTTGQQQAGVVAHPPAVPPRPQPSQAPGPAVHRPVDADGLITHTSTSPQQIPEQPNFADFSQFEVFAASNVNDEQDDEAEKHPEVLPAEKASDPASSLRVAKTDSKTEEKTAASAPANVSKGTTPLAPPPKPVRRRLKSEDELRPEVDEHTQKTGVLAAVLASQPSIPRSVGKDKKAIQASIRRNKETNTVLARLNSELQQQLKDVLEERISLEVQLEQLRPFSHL
UniProt Q13554, whole entry: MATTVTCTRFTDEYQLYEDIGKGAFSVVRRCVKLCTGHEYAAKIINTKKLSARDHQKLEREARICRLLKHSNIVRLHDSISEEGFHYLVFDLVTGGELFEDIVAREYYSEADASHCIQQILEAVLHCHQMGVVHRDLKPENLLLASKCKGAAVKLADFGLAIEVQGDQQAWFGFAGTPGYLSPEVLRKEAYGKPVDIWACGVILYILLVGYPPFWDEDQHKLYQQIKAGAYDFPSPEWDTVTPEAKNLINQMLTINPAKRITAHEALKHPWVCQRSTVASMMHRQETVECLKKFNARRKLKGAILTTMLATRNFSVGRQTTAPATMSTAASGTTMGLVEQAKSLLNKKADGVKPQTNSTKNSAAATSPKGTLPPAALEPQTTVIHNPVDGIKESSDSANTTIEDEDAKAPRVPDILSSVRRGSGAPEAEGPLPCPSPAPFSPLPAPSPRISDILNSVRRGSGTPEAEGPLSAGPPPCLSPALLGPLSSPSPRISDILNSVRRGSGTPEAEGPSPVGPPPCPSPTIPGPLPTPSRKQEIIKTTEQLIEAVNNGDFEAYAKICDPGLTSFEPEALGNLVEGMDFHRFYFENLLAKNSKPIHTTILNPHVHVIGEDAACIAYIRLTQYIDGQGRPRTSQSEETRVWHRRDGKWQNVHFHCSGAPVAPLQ
UniProt P23229: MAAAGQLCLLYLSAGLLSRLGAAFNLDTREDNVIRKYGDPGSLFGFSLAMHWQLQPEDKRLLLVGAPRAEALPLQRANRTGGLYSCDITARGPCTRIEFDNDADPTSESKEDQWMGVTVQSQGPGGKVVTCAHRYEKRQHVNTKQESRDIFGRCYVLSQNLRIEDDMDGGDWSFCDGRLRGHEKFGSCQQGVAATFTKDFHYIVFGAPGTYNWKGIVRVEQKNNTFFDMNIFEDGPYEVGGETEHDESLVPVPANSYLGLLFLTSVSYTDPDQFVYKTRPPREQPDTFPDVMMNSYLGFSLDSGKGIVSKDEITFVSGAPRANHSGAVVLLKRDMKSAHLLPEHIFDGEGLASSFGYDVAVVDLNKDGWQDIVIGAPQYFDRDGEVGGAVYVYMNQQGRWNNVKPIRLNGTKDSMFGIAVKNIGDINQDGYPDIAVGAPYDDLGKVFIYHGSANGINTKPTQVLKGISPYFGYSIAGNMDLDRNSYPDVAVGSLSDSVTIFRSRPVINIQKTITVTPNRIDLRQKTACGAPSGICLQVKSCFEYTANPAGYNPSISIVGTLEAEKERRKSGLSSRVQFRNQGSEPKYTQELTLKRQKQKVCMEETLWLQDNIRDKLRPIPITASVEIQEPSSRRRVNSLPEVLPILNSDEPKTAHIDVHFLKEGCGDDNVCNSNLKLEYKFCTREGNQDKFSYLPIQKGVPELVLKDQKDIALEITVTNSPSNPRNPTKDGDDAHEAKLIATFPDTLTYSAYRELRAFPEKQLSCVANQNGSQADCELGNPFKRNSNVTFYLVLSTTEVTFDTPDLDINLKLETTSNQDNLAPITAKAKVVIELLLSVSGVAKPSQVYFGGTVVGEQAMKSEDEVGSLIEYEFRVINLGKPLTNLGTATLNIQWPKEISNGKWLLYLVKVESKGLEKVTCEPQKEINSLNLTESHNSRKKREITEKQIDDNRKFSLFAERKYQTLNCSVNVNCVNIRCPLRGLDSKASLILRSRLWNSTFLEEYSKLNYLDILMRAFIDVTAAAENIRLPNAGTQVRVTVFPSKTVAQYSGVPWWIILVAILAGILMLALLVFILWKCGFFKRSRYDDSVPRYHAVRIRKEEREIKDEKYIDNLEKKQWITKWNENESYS
UniProt Q8TDX5: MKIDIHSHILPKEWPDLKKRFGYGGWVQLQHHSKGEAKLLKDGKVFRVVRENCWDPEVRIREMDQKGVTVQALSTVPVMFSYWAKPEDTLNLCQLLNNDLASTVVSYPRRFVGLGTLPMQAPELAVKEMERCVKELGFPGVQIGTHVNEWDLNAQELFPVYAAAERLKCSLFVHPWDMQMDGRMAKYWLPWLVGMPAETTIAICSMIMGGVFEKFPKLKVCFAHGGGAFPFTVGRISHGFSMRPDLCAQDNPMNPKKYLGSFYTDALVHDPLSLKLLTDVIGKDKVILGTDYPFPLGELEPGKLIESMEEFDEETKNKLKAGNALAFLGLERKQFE
UniProt P43007: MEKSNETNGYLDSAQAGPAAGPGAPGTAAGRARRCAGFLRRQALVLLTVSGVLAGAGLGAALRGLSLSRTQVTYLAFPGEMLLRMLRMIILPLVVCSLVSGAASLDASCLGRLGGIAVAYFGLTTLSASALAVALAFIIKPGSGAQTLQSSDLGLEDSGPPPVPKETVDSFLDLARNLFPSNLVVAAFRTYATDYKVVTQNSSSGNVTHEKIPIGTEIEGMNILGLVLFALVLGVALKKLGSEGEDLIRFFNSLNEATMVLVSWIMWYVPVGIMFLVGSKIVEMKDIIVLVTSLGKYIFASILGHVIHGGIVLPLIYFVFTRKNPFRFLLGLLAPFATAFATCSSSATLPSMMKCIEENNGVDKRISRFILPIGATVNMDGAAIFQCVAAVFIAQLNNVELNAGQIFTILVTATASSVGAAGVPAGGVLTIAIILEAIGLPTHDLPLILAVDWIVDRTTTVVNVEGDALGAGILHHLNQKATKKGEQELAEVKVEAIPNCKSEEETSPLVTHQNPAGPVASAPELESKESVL
UniProt Q9H6V9: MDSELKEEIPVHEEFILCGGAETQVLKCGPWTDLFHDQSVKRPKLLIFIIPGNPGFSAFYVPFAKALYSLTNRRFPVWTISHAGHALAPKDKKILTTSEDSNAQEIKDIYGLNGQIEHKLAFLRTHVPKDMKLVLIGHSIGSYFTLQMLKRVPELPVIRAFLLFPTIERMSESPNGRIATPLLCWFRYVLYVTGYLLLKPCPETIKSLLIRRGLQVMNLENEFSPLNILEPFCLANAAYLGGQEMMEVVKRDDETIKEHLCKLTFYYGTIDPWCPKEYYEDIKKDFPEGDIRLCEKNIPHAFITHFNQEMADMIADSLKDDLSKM
UniProt Q8WYQ5: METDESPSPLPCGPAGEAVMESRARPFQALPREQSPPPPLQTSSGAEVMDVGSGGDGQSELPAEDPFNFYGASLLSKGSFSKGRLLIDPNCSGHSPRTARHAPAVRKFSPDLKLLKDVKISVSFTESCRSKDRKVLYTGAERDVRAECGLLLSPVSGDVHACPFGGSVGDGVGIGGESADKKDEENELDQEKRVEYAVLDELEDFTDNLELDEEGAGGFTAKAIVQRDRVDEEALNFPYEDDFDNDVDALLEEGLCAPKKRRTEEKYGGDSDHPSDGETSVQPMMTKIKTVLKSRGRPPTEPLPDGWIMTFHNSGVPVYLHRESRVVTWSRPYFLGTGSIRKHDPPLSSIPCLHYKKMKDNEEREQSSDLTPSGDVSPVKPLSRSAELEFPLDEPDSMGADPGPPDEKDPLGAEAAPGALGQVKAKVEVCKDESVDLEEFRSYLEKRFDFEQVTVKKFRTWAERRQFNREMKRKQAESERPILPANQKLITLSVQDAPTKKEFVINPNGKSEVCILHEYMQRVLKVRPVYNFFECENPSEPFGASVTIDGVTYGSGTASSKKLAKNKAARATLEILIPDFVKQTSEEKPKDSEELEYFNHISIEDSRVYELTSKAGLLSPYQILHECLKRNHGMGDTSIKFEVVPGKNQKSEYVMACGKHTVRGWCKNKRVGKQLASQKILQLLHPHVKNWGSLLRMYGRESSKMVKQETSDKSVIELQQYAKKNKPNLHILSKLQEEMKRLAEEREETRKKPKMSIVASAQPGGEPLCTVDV
UniProt P28288: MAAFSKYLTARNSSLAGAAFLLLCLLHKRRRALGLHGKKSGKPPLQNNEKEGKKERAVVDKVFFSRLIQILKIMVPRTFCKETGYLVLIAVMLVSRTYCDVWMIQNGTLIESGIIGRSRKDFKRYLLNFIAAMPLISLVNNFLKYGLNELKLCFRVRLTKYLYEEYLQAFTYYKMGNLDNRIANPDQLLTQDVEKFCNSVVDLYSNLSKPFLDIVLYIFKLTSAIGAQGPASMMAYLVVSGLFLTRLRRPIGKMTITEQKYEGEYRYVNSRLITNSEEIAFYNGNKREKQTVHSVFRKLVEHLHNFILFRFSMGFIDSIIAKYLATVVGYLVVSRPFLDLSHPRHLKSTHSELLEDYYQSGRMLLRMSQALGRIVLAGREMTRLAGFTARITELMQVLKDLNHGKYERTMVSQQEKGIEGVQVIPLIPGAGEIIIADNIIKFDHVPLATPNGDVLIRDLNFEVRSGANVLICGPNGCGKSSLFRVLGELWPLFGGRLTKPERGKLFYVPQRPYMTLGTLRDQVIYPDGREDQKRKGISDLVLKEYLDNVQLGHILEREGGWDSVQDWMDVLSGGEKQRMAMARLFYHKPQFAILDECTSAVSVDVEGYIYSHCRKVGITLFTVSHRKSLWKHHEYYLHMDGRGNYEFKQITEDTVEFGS
UniProt Q14746: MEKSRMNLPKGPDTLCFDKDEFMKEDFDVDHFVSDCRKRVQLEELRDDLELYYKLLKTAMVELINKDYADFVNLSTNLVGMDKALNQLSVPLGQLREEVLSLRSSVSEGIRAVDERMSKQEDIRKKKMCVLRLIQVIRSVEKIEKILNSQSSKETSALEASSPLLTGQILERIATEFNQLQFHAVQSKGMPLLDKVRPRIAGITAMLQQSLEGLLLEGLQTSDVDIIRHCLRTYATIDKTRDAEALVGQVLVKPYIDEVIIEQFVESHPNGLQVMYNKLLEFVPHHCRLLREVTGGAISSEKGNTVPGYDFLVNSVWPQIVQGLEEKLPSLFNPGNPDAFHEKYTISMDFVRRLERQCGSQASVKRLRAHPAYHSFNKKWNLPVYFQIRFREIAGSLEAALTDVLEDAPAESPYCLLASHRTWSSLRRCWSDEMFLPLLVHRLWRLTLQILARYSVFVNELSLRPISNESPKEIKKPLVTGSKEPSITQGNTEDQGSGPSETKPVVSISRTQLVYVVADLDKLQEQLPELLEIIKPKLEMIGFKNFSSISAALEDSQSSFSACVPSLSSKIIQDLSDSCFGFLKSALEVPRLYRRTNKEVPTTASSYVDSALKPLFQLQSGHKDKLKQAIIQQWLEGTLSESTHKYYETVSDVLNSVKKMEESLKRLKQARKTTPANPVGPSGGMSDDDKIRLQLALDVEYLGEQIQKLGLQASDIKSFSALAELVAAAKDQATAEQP
UniProt Q96KC2: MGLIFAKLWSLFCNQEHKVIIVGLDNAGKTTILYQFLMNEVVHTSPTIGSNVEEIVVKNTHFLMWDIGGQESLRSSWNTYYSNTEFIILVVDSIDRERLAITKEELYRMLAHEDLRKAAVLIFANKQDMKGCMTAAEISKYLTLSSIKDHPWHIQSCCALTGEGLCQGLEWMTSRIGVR
UniProt O60828: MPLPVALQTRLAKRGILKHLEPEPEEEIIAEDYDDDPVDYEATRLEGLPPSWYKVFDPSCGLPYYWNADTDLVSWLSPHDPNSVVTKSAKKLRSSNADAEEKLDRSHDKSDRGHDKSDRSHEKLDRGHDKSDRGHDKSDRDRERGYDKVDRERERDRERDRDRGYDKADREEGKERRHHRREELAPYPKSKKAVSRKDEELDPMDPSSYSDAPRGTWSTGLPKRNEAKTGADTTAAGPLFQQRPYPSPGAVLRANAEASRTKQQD

Compound: [O-][N+](C(C1=C(C(O)=C2)NC(C(C=C3)=CC=C3Cl)C4C1C=CC4)=C2Cl)=O
Assay: melting temperature shift (compound 7 minus DMSO); higher = compound stabilises the protein
Conditions: 10 µM
Method: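 Thermal proteome profiling (TMT mass spectrometry) in intact DAOY medulloblastoma cells or DAOY lysates treated with 10 µM compound 7 or DMSO, heated at 10 temperatures from 40.5 to 73.8 °C for 3 min. Melting curves were fitted with the Bioconductor TPP package, and the melting point difference between compound and vehicle is reported per protein (single curve per condition).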

[1] = system: DAOY cell lysate, treatment time: 20 min, 4 °C
[2] = system: intact DAOY cells, treatment time: 90 min, 37 °C

RAB10 (UniProt P61026)
melting temperature shift [1]: 0.584 °C
melting temperature shift [2]: -0.921 °C

REPS1 (UniProt Q96D71)
melting temperature shift [1]: -0.862 °C
melting temperature shift [2]: 0.188 °C

NUF2 (UniProt Q9BZD4)
melting temperature shift [1]: -0.605 °C
melting temperature shift [2]: -0.338 °C

CCNA2 (UniProt P20248)
melting temperature shift [1]: -0.625 °C
melting temperature shift [2]: -0.584 °C

CAMK2B (UniProt Q13554)
melting temperature shift [2]: -0.746 °C

UniProt O15530
melting temperature shift [1]: -0.228 °C
melting temperature shift [2]: -1.1 °C

FAM98A (UniProt Q8NCA5)
melting temperature shift [1]: -0.302 °C
melting temperature shift [2]: 0.629 °C

UniProt P01009
melting temperature shift [1]: -0.0351 °C
melting temperature shift [2]: 5.54 °C

UniProt Q13901
melting temperature shift [1]: 0.266 °C
melting temperature shift [2]: 1.2 °C

CTIF (UniProt O43310)
melting temperature shift [1]: 0.112 °C
melting temperature shift [2]: 0.0288 °C

GTF2E1 (UniProt P29083)
melting temperature shift [1]: -0.222 °C
melting temperature shift [2]: -1.53 °C

CCT6A (UniProt P40227)
melting temperature shift [1]: -0.441 °C
melting temperature shift [2]: -0.0971 °C

SLC30A7 (UniProt Q8NEW0)
melting temperature shift [1]: -0.45 °C
melting temperature shift [2]: -0.18 °C

PPFIA1 (UniProt Q13136)
melting temperature shift [1]: -1.15 °C
melting temperature shift [2]: -0.968 °C

ITGA6 (UniProt P23229)
melting temperature shift [1]: 1.48 °C
melting temperature shift [2]: 0.101 °C

WDR12 (UniProt Q9GZL7)
melting temperature shift [1]: 0.908 °C
melting temperature shift [2]: 0.63 °C

STXBP3 (UniProt O00186)
melting temperature shift [1]: 0.716 °C
melting temperature shift [2]: 0.414 °C

UniProt Q99643
melting temperature shift [1]: 1.79 °C
melting temperature shift [2]: -7.55 °C

UniProt Q8TDX5
melting temperature shift [1]: 0.311 °C

PTBP1 (UniProt P26599)
melting temperature shift [1]: 0.947 °C
melting temperature shift [2]: -0.656 °C

UniProt Q9NV88
melting temperature shift [1]: 0.336 °C
melting temperature shift [2]: 0.682 °C

POLD2 (UniProt P49005)
melting temperature shift [1]: -0.486 °C
melting temperature shift [2]: -1.65 °C

VAMP7 (UniProt P51809)
melting temperature shift [1]: 0.46 °C
melting temperature shift [2]: -0.52 °C

TMED2 (UniProt Q15363)
melting temperature shift [1]: 0.413 °C
melting temperature shift [2]: -1.29 °C

ZCCHC8 (UniProt Q6NZY4)
melting temperature shift [1]: 0.865 °C
melting temperature shift [2]: 0.545 °C

P4HA1 (UniProt P13674)
melting temperature shift [1]: 1.05 °C
melting temperature shift [2]: 0.784 °C

UniProt Q07352
melting temperature shift [1]: -1.41 °C
melting temperature shift [2]: -0.868 °C

MTSS1L (UniProt Q765P7)
melting temperature shift [1]: -2.37 °C

LSM12 (UniProt Q3MHD2)
melting temperature shift [1]: -0.176 °C
melting temperature shift [2]: 0.163 °C

CASC5 (UniProt Q8NG31)
melting temperature shift [1]: 0.388 °C
melting temperature shift [2]: 2.07 °C

ARHGAP1 (UniProt Q07960)
melting temperature shift [1]: -0.569 °C
melting temperature shift [2]: -0.164 °C

UniProt P43366
melting temperature shift [1]: -0.136 °C
melting temperature shift [2]: 0.601 °C

CRTAP (UniProt O75718)
melting temperature shift [1]: 1.21 °C
melting temperature shift [2]: 0.944 °C

PDCD4 (UniProt Q53EL6)
melting temperature shift [1]: -0.563 °C
melting temperature shift [2]: -1.91 °C

CAST (UniProt P20810)
melting temperature shift [1]: -2.63 °C

TMEM126A (UniProt Q9H061)
melting temperature shift [1]: 0.94 °C
melting temperature shift [2]: -0.562 °C

MRPS22 (UniProt P82650)
melting temperature shift [1]: 0.258 °C
melting temperature shift [2]: -0.605 °C

TRMT10C (UniProt Q7L0Y3)
melting temperature shift [1]: 0.333 °C
melting temperature shift [2]: -1.85 °C

DKC1 (UniProt O60832)
melting temperature shift [1]: 0.657 °C
melting temperature shift [2]: 0.732 °C

PTDSS1 (UniProt P48651)
melting temperature shift [1]: -0.0311 °C
melting temperature shift [2]: 0.392 °C

NAA38 (UniProt Q9BRA0)
melting temperature shift [1]: -1.41 °C
melting temperature shift [2]: -3.07 °C

TOP2A (UniProt P11388)
melting temperature shift [1]: 0.455 °C
melting temperature shift [2]: -0.224 °C

SLC1A4 (UniProt P43007)
melting temperature shift [1]: -0.234 °C

THRAP3 (UniProt Q9Y2W1)
melting temperature shift [1]: 0.77 °C
melting temperature shift [2]: 3.06 °C

CSK (UniProt P41240)
melting temperature shift [1]: -0.445 °C
melting temperature shift [2]: -0.126 °C

SH3PXD2B (UniProt A1X283)
melting temperature shift [1]: -0.325 °C
melting temperature shift [2]: -0.177 °C

RPL23 (UniProt P62829)
melting temperature shift [1]: 0.109 °C
melting temperature shift [2]: -0.645 °C

UniProt Q14CS0
melting temperature shift [1]: 0.671 °C

SPIN1 (UniProt Q9Y657)
melting temperature shift [1]: 0.745 °C
melting temperature shift [2]: 0.424 °C

LDAH (UniProt Q9H6V9)
melting temperature shift [1]: 3.86 °C
melting temperature shift [2]: -0.852 °C

NAA20 (UniProt P61599)
melting temperature shift [1]: 0.205 °C
melting temperature shift [2]: -1.07 °C

UniProt Q9P0U1
melting temperature shift [1]: 1.53 °C
melting temperature shift [2]: -0.71 °C

LYPLA2 (UniProt O95372)
melting temperature shift [1]: -0.27 °C
melting temperature shift [2]: 0.245 °C

NUDT21 (UniProt O43809)
melting temperature shift [1]: -0.476 °C
melting temperature shift [2]: 0.249 °C

CYFIP1 (UniProt Q7L576)
melting temperature shift [1]: -0.219 °C
melting temperature shift [2]: 0.0619 °C

HTATIP2 (UniProt Q9BUP3)
melting temperature shift [1]: 1.15 °C
melting temperature shift [2]: 0.0263 °C

PGM1 (UniProt P36871)
melting temperature shift [1]: -0.758 °C
melting temperature shift [2]: -1.59 °C

PSMF1 (UniProt Q92530)
melting temperature shift [1]: -0.141 °C
melting temperature shift [2]: -0.525 °C

SLC7A5 (UniProt Q01650)
melting temperature shift [1]: 2.27 °C
melting temperature shift [2]: 0.125 °C

PEX14 (UniProt O75381)
melting temperature shift [1]: 2.63 °C
melting temperature shift [2]: 0.0352 °C

PUF60 (UniProt Q9UHX1)
melting temperature shift [1]: -0.115 °C
melting temperature shift [2]: -0.875 °C

MALSU1 (UniProt Q96EH3)
melting temperature shift [1]: 1.79 °C
melting temperature shift [2]: -0.125 °C

PSMB6 (UniProt P28072)
melting temperature shift [1]: -0.09 °C
melting temperature shift [2]: 1.34 °C

UniProt O95626
melting temperature shift [2]: 0.337 °C

PAFAH2 (UniProt Q99487)
melting temperature shift [1]: -0.195 °C
melting temperature shift [2]: -0.0533 °C

SF3A1 (UniProt Q15459)
melting temperature shift [1]: -0.49 °C
melting temperature shift [2]: 0.599 °C

CDC123 (UniProt O75794)
melting temperature shift [1]: -0.953 °C
melting temperature shift [2]: -0.849 °C

UniProt P39880
melting temperature shift [1]: 1.3 °C
melting temperature shift [2]: -1.12 °C

PSMB5 (UniProt P28074)
melting temperature shift [2]: -0.379 °C

DSN1 (UniProt Q9H410)
melting temperature shift [1]: -0.533 °C
melting temperature shift [2]: 0.0488 °C

NEK9 (UniProt Q8TD19)
melting temperature shift [1]: -0.357 °C
melting temperature shift [2]: -0.87 °C

ARIH2 (UniProt O95376)
melting temperature shift [1]: -0.832 °C
melting temperature shift [2]: 0.512 °C

UniProt Q13595
melting temperature shift [1]: 2.14 °C
melting temperature shift [2]: 0.763 °C

NRDC (UniProt O43847)
melting temperature shift [1]: -0.73 °C
melting temperature shift [2]: 0.24 °C

UniProt P08476
melting temperature shift [1]: 0.149 °C
melting temperature shift [2]: -0.253 °C

VPS28 (UniProt Q9UK41)
melting temperature shift [1]: -0.719 °C
melting temperature shift [2]: -0.489 °C

UniProt Q6KCM7
melting temperature shift [1]: 1.9 °C

UniProt Q8WYQ5
melting temperature shift [1]: 1.05 °C
melting temperature shift [2]: 0.0414 °C

ABCD3 (UniProt P28288)
melting temperature shift [1]: -1.42 °C
melting temperature shift [2]: -2.2 °C

RBM25 (UniProt P49756)
melting temperature shift [1]: -0.209 °C
melting temperature shift [2]: -1.09 °C

ACTR8 (UniProt Q9H981)
melting temperature shift [1]: 0.68 °C
melting temperature shift [2]: -5.44 °C

SLC25A17 (UniProt O43808)
melting temperature shift [1]: -0.0172 °C

FAM96A (UniProt Q9H5X1)
melting temperature shift [2]: -0.828 °C

CNOT3 (UniProt O75175)
melting temperature shift [1]: -0.551 °C
melting temperature shift [2]: -0.457 °C

UniProt P35219
melting temperature shift [1]: -0.893 °C
melting temperature shift [2]: -0.855 °C

UniProt Q9H7N4
melting temperature shift [1]: 0.544 °C
melting temperature shift [2]: 2.66 °C

SF3B1 (UniProt O75533)
melting temperature shift [1]: -0.191 °C
melting temperature shift [2]: 0.142 °C

SELK (UniProt Q9Y6D0)
melting temperature shift [1]: 2.82 °C
melting temperature shift [2]: 1.42 °C

COG2 (UniProt Q14746)
melting temperature shift [1]: -0.42 °C
melting temperature shift [2]: -0.525 °C

UniProt O94901
melting temperature shift [1]: 1.58 °C

CHD1L (UniProt Q86WJ1)
melting temperature shift [1]: -0.665 °C
melting temperature shift [2]: -1.04 °C

FUBP1 (UniProt Q96AE4)
melting temperature shift [1]: 0.218 °C
melting temperature shift [2]: -0.127 °C

MORC2 (UniProt Q9Y6X9)
melting temperature shift [1]: -2.67 °C
melting temperature shift [2]: -3.39 °C

RNF121 (UniProt Q9H920)
melting temperature shift [2]: -0.598 °C

UniProt Q96KC2
melting temperature shift [2]: -2.05 °C

PRKAB1 (UniProt Q9Y478)
melting temperature shift [1]: -0.147 °C
melting temperature shift [2]: -0.469 °C

SPC24 (UniProt Q8NBT2)
melting temperature shift [1]: -0.45 °C
melting temperature shift [2]: 0.567 °C

UniProt Q5H9J7
melting temperature shift [1]: 2 °C

UniProt P21108
melting temperature shift [2]: -0.014 °C

PARP12 (UniProt Q9H0J9)
melting temperature shift [1]: -2.26 °C

PQBP1 (UniProt O60828)
melting temperature shift [1]: -2.7 °C

ANXA8L1 (UniProt Q5VT79)
melting temperature shift [1]: -0.438 °C
melting temperature shift [2]: -0.468 °C

UniProt Q9H0N5
melting temperature shift [1]: 2.34 °C

UniProt Q12887
melting temperature shift [1]: 1.82 °C
melting temperature shift [2]: -0.954 °C

DHFR (UniProt P00374)
melting temperature shift [1]: -1.38 °C
melting temperature shift [2]: -0.0904 °C

UniProt Q2TAP0
melting temperature shift [2]: 0.107 °C

FNBP1L (UniProt Q5T0N5)
melting temperature shift [1]: 0.87 °C
melting temperature shift [2]: -0.242 °C

FKBP2 (UniProt P26885)
melting temperature shift [1]: -0.958 °C
melting temperature shift [2]: 0.165 °C
